Test results reported in PMC10276851, “Tozorakimab (MEDI3506): an anti-IL-33 antibody that inhibits IL-33 signalling via ST2 and RAGE/EGFR to reduce inflammation and epithelial dysfunction” (Scientific Reports, 2023).
No constants are given. Whether binding was seen depends on the method and setting. Some results given as binding are weak or reduced against the parent protein; the word gives no strength.

By UniProt entry, the sequences of proteins in these tests, tags left out. Where a name states a change or a piece, a line headed by the entry shows the natural chain unless it says otherwise. Chains listed by the source or under a name are the forms on record and can include a tag or linker.
soluble serum stimulated 2 (sST2), the truncated, soluble form of ST2 (Q01638, form named): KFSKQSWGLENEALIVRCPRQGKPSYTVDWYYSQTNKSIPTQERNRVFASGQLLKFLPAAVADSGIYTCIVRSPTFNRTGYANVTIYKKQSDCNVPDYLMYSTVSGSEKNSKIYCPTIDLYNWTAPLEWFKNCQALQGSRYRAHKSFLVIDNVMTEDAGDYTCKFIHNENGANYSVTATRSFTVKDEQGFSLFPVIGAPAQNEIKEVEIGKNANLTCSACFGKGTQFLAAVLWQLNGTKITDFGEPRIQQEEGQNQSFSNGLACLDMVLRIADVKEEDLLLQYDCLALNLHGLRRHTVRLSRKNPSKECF

Biological target: soluble serum stimulated 2 (sST2), the truncated, soluble form of ST2 (UniProt Q01638)
Test: AlphaScreen or HTRF; homogeneous FRET HTRF receptor–ligand competition assay measuring the inhibition of the IL-33–sST2 interaction by scFvs or antibodies; both purified

B1: reduced interleukin-33 (IL-33^red), recombinant human, residues 112–270 (ligand, UniProt O95760 112-270, looked up)
chain: SITGISPITEYLASLSTYNDQSITFALEDESYEIYVEDLKKDEKKDKVLLSYYESQHPSNESGDGVDGKMLMVTLSPTKDFWLHANNKEHSVELHKCEKPLPDQAFFVLHNMHSNCVSFECKTDPGVFIGVKDNHLALIKVDSSENLCTENILFKLSET
notes: interleukin-33, human, residues 112–270, reduced form (free cysteines); Other assays used a biotinylated Avi-tag histidine-tag form or an N-terminally tagged form; also called wild-type IL-33; source: recombinant
  binding: binds
